{"source": "PubChem BioAssay AID504793 – Drosophila RNAi Screening Center, 2011", "screen": "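Genes required for cells to halt at G2/M after double-strand DNA breaks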 (primary screen)", "system": "Drosophila S2R+ cells", "reagent": "long dsRNA against Drosophila genes, about 0.25 µg dsRNA per well", "duration": "4 days of dsRNA, then 4 hours of drug before read-out", "challenge": "doxorubicin 0.5 µM for 4 hours to cause double-strand breaks, in cells also given a low, harmless dose of dsRNA against nbs to sensitise the assay", "measured": "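Mitotic index as the number of phospho-histone H3-positive cells in each well following doxorubicin, given as raw counts without normalisation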", "direction": "mitotic cells: higher = more cells in mitosis, weaker G2 arrest", "hit rule": "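a call needs confirmation in secondary tests, with other dsRNAs and a check of mitotic timing without damage, not just a high primary count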", "meaning of the calls": "active = confirmed in follow-up tests; inactive = not confirmed", "note": "The screen tested about 23,000 reagents; below is a random part of those with a known target gene and a result. Over the whole deposit, 62 (0.27%) got an active call. 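Calls come from follow-up tests whose scores are not deposited, so confirmed genes may have low counts here; counts are not normalised per plate.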 Raw values vary from plate to plate and are shown uncorrected."}
{"target gene":"ninaA (neither inactivation nor afterpotential A)","dsRNA":"DRSC00830","mitotic cells, replicate 1":2,"activity call":"inactive"}
{"target gene":"RpLP2 (Ribosomal protein LP2)","dsRNA":"DRSC07539","mitotic cells, replicate 1":2,"activity call":"inactive"}
{"target gene":"RpLP2 (Ribosomal protein LP2)","dsRNA":"DRSC28510","mitotic cells, replicate 1":3,"activity call":"inactive"}
{"target gene":"eIF2A (eukaryotic translation initiation factor 2A)","dsRNA":"DRSC11825","mitotic cells, replicate 1":3,"activity call":"inactive"}
{"target gene":"CG32182","dsRNA":"DRSC09508","mitotic cells, replicate 1":14,"activity call":"inactive"}
{"target gene":"CG32182","dsRNA":"DRSC24583","mitotic cells, replicate 1":9,"activity call":"inactive"}
{"target gene":"Tnpo (Transportin)","dsRNA":"DRSC11309","mitotic cells, replicate 1":3,"activity call":"inactive"}
{"target gene":"Tnpo (Transportin)","dsRNA":"DRSC25104","mitotic cells, replicate 1":1,"activity call":"inactive"}
{"target gene":"pcm (pacman)","dsRNA":"DRSC20361","mitotic cells, replicate 1":7,"activity call":"inactive"}
{"target gene":"sip3 (septin interacting protein 3)","dsRNA":"DRSC15402","mitotic cells, replicate 1":8,"activity call":"inactive"}
{"target gene":"sip3 (septin interacting protein 3)","dsRNA":"DRSC29484","mitotic cells, replicate 1":1,"activity call":"inactive"}
{"target gene":"Tpc1","dsRNA":"DRSC15614","mitotic cells, replicate 1":4,"activity call":"inactive"}
{"target gene":"Tpc1","dsRNA":"DRSC16074","mitotic cells, replicate 1":6,"activity call":"inactive"}
{"target gene":"Tpc1","dsRNA":"DRSC29490","mitotic cells, replicate 1":5,"activity call":"inactive"}
{"target gene":"CG7848","dsRNA":"DRSC07050","mitotic cells, replicate 1":4,"activity call":"inactive"}
{"target gene":"Nmd3 (Nonsense-mediated mRNA 3)","dsRNA":"DRSC18687","mitotic cells, replicate 1":6,"activity call":"inactive"}
{"target gene":"Nmd3 (Nonsense-mediated mRNA 3)","dsRNA":"DRSC22834","mitotic cells, replicate 1":6,"activity call":"inactive"}
{"target gene":"Nnk (Nicknack)","dsRNA":"DRSC15274","mitotic cells, replicate 1":8,"activity call":"inactive"}
{"target gene":"Nnk (Nicknack)","dsRNA":"DRSC24564","mitotic cells, replicate 1":7,"activity call":"inactive"}
{"target gene":"CG10750","dsRNA":"DRSC02105","mitotic cells, replicate 1":8,"activity call":"inactive"}
{"target gene":"CG10750","dsRNA":"DRSC29624","mitotic cells, replicate 1":5,"activity call":"inactive"}
{"target gene":"MAPk-Ak2 (MAP kinase activated protein-kinase-2)","dsRNA":"DRSC18678","mitotic cells, replicate 1":16,"activity call":"inactive"}
{"target gene":"MAPk-Ak2 (MAP kinase activated protein-kinase-2)","dsRNA":"DRSC29642","mitotic cells, replicate 1":6,"activity call":"inactive"}

3 entries already listed, arranged by “mitotic cells, replicate 1”, low to high.
{"target gene":"CG10750","dsRNA":"DRSC29624","mitotic cells, replicate 1":5,"activity call":"inactive"}
{"target gene":"Nnk (Nicknack)","dsRNA":"DRSC24564","mitotic cells, replicate 1":7,"activity call":"inactive"}
{"target gene":"CG10750","dsRNA":"DRSC02105","mitotic cells, replicate 1":8,"activity call":"inactive"}
